Source: PubChem BioAssay AID1259424 (University of Nebraska Medical Center, 2018)
Test: 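Seek colon cancer survival genes behaving like KSR1, using a six-gene signature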 (primary screen). System: human HCT116 colon cancer cells. Reagents: siRNA pool against human genes, 50 nM. Measured: 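Log2 levels of six mRNAs (branched-DNA multiplex), adjusted by two reference genes and the non-targeting median, then scored against the average KSR1 knockdown pattern as Pearson r and euclidean distance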. Scale: mean correlation with KSR1 profile: higher = expression change more like KSR1 knockdown; mean distance from KSR1 profile: higher = expression change less like KSR1 knockdown.
Here is an unselected part of about 14,000 reagents. 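Higher correlation or smaller distance means closer resemblance to KSR1 loss; control wells, including KSR1 knockdowns, recur on many plates.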 Not all columns of the deposit are shown. Not stated in the record: the time to read-out.

PGD (phosphogluconate dehydrogenase) gave mean correlation with KSR1 profile -0.0963; mean distance from KSR1 profile 2.
CKAP4 (cytoskeleton associated protein 4) gave mean correlation with KSR1 profile -0.563; mean distance from KSR1 profile 3.12.
With knock-down of POPDC2 (popeye domain cAMP effector 2), the screen gave mean correlation with KSR1 profile -0.286; mean distance from KSR1 profile 2.1.
PMP2 (peripheral myelin protein 2) scored mean correlation with KSR1 profile 0.15; mean distance from KSR1 profile 2.23.
After knock-down of PTGDR (prostaglandin D2 receptor), the record shows mean correlation with KSR1 profile 0.612; mean distance from KSR1 profile 1.72.
For GADD45G (growth arrest and DNA damage inducible gamma), the entry reads mean correlation with KSR1 profile 0.101; mean distance from KSR1 profile 1.2.
With knock-down of GMFB (glia maturation factor beta), the screen gave mean correlation with KSR1 profile 0.0849; mean distance from KSR1 profile 2.3.
PPP2R5E (protein phosphatase 2 regulatory subunit B'epsilon) scored mean correlation with KSR1 profile -0.471; mean distance from KSR1 profile 3.16.
Silencing of COL6A2 (collagen type VI alpha 2 chain) resulted in: mean correlation with KSR1 profile 0.325; mean distance from KSR1 profile 1.05.
SH3PXD2B (SH3 and PX domains 2B) showed mean correlation with KSR1 profile 0.0426; mean distance from KSR1 profile 1.79.
Silencing of TOMM22 (translocase of outer mitochondrial membrane 22) came out at: mean correlation with KSR1 profile 0.652; mean distance from KSR1 profile 1.11.
Knock-down of DUS1L (dihydrouridine synthase 1 like) gave: mean correlation with KSR1 profile -0.211; mean distance from KSR1 profile 4.43.
Against NDOR1 (NADPH dependent diflavin oxidoreductase 1) the deposit lists mean correlation with KSR1 profile -0.0755; mean distance from KSR1 profile 2.24.
After knock-down of BSPRY (B-box and SPRY domain containing), the record shows mean correlation with KSR1 profile -0.529; mean distance from KSR1 profile 3.05.
With knock-down of TRIM39 (tripartite motif containing 39), the screen gave mean correlation with KSR1 profile -0.0371; mean distance from KSR1 profile 2.03.
MASTL (microtubule associated serine/threonine kinase like) scored mean correlation with KSR1 profile -0.0212; mean distance from KSR1 profile 1.69.
NRP1 (neuropilin 1) scored mean correlation with KSR1 profile 0.857; mean distance from KSR1 profile 1.61.
For CSRP1 (cysteine and glycine rich protein 1), the entry reads mean correlation with KSR1 profile -0.204; mean distance from KSR1 profile 1.3.
Against UNC5C (unc-5 netrin receptor C), the entry reads mean correlation with KSR1 profile -0.138; mean distance from KSR1 profile 2.83.
Knock-down of PIGV (phosphatidylinositol glycan anchor biosynthesis class V) gave: mean correlation with KSR1 profile -0.387; mean distance from KSR1 profile 1.74.
Against CEP126 (centrosomal protein 126), the values are mean correlation with KSR1 profile 0.43; mean distance from KSR1 profile 0.989.
Silencing of FGF21 (fibroblast growth factor 21) came out at: mean correlation with KSR1 profile -0.308; mean distance from KSR1 profile 1.24.
For SENP6 (SUMO specific peptidase 6), the values are mean correlation with KSR1 profile -0.258; mean distance from KSR1 profile 2.36.
For KCNC2 (potassium voltage-gated channel subfamily C member 2), the values are mean correlation with KSR1 profile -0.269; mean distance from KSR1 profile 3.34.
Knock-down of TRIM13 (tripartite motif containing 13) came out at: mean correlation with KSR1 profile 0.337; mean distance from KSR1 profile 1.27.
For IL1RAPL1 (interleukin 1 receptor accessory protein like 1), the values are mean correlation with KSR1 profile -0.237; mean distance from KSR1 profile 0.949.
With knock-down of MRPL46 (mitochondrial ribosomal protein L46) the results were mean correlation with KSR1 profile 0.203; mean distance from KSR1 profile 1.79.
Silencing of ATP5MF (ATP synthase membrane subunit f) resulted in: mean correlation with KSR1 profile 0.0183; mean distance from KSR1 profile 1.37.
After knock-down of NUDT21 (nudix hydrolase 21), the record shows mean correlation with KSR1 profile -0.659; mean distance from KSR1 profile 3.28.
For ITGA4 (integrin subunit alpha 4) the deposit lists mean correlation with KSR1 profile 0.35; mean distance from KSR1 profile 1.35.
Against TRPT1 (tRNA phosphotransferase 1), the entry reads mean correlation with KSR1 profile 0.437; mean distance from KSR1 profile 1.76.
Silencing of SEPTIN3 (septin 3) gave: mean correlation with KSR1 profile 0.858; mean distance from KSR1 profile 1.07.
GNMT (glycine N-methyltransferase) gave mean correlation with KSR1 profile -0.0322; mean distance from KSR1 profile 1.62.
NRG1 (neuregulin 1) gave mean correlation with KSR1 profile -0.284; mean distance from KSR1 profile 1.93.
After knock-down of EFR3B (EFR3 homolog B), the record shows mean correlation with KSR1 profile -0.416; mean distance from KSR1 profile 3.23.
Knock-down of PBX2 (PBX homeobox 2) came out at: mean correlation with KSR1 profile 0.133; mean distance from KSR1 profile 1.5.

Part of the list above, reformatted:
{"gene": "DUS1L (dihydrouridine synthase 1 like)", "mean correlation with KSR1 profile": -0.211, "mean distance from KSR1 profile": 4.43}
{"gene": "NDOR1 (NADPH dependent diflavin oxidoreductase 1)", "mean correlation with KSR1 profile": -0.0755, "mean distance from KSR1 profile": 2.24}
{"gene": "BSPRY (B-box and SPRY domain containing)", "mean correlation with KSR1 profile": -0.529, "mean distance from KSR1 profile": 3.05}
{"gene": "TRIM39 (tripartite motif containing 39)", "mean correlation with KSR1 profile": -0.0371, "mean distance from KSR1 profile": 2.03}
{"gene": "MASTL (microtubule associated serine/threonine kinase like)", "mean correlation with KSR1 profile": -0.0212, "mean distance from KSR1 profile": 1.69}
{"gene": "NRP1 (neuropilin 1)", "mean correlation with KSR1 profile": 0.857, "mean distance from KSR1 profile": 1.61}
